In all, about 53,000 sequences went through this assay and about 3,700 (7%) were called active.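 How the source made its calls: active means gene knockdowns whose robust z-score for IL-1 alpha signal is at least 2 or at most -2, so actives lie on both sides; inactive means the rest.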 The list shows a part of the results.
test: Components of the Cytosolic LPS Sensing Pathway: Gene Identification via Genome-wide siRNA Screen; conditions: RAW264.7 macrophages, IL-1a HTRF, actives lie on both sides, screened at 100 nM (by protocol), cells primed 5 h with Pam3CSK4 first;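 further: robust z of the log signal after scaling to non-targeting control siRNA wells of the plate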
How it was run: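 Cells (RAW264.7, 1×10^4 per well) were transfected with siRNA at 100 nM and cultured 48h at 37 degrees C. Pam3CSK4 was added for 5 hours; LipidA transfection followed for 24 hour. IL-1a was then measured by HTRF.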

Sequence	z-score
GGAGAAGGAGUGCAAUUCCTT against Ptger3	inactive: -0.495
GGAAGUCAAGCAUAUUGCCTT against Sntb2	active: 3.04
GGAGUGGACAAUUUCUUUATT against Fstl4	inactive: -0.261
GGUUGUAUUAUUGGCUUUGTT against Snrpe	inactive: -1.38
CGGCAUCCAUCUUUAGUGUTT against Hrh1	inactive: 0.59
CCUACAUUAAGCAAGGGACTT against Stk35	inactive: 1.23
GCGGUUGUGGUACUUAAGCTT against Nxnl1	inactive: 0.601
GCAAAAGUGAUAUUUGCACTT against Aox2	inactive: 0.234
GGUCUAUGGUAGUGGAAUATT against Magea7-ps	inactive: 1.25
GGCGACACAGCAAAUGAAATT against Serpinb5	inactive: -0.168
GGAUAUACAUCAUUUCUCATT against Tmem131l	inactive: 1.03
GGAGAUGCUCUGCUGGUGUTT against Cyb561	inactive: -0.237
GGCAGUCAGGAAAUGCUUGTT against Rwdd3	inactive: -0.212
CCAGAGAACCAAGUUAUUUTT against Olfr344	inactive: -0.527
CCUUGCUAGUAGAAUAAACTT against Park7	inactive: 1.14
CGAGCUAAAUUUCAAGAACTT against Tcp11x2	inactive: 0.312
GGCAACGAUGAAAACUACUTT against Runx1	inactive: 1.07
GGACAAGACCAUCUUCGAUTT against Sectm1a	inactive: 0.21
GCUGCGCAUCCACUUAGAUTT against Tmed11	inactive: -0.964
GGCCGACAAUUUGUCAGUUTT against Uaca	inactive: -1.19
GCCAGUUUCCAGUCCUUGUTT against Dppa5a	inactive: -0.2
GGCAGAACUACAUUGAAAATT against Dusp11	inactive: 0.0735
GGAAAAUGCUGACUGAUAUTT against Cts8	inactive: 0.231
CCUCAAAUGGCCACACACUTT against Kcnj11	inactive: -1.27
GGACCCUACAUUCUGUAUATT against Olfr474	inactive: 0.0714
GGAGAUCCGAUGUUAUGUGTT against Atp9a	inactive: -1.12
GCAUUCGCUACAAUUCCAUTT against Slc31a1	inactive: 0.112

Sequence	z-score
GCCAAAUUGACUGUAAAUGTT against Lrig2	inactive: -1.9
CCUUAUUCAACCAUACGGCTT against Fut10	inactive: 0.796
GGAAGAAACUUAAAUGAGUTT against Eif3d	inactive: 1.33
GGUCAUCGAUAAGAAAAGATT against Hunk	inactive: -1.09
GCCAAAACUCUGUUAGAUATT against Anapc7	inactive: -0.931
GGAGGCCAAGCAGAAAGAGTT against Kars	inactive: 0.184
GGGAGCAUCAAACAACAAUTT against Tbr1	inactive: 0.742
CCUCCUACUGUUUAAUGUUTT against Exd2	active: 2.47
GGUUAUUAAGUAGCUUUUCTT against Dtx1	inactive: 1.64
GGUUGUUCCCUUGAAAGGCTT against Gamt	inactive: -0.105
GGAGCUAGAAAAGACAUACTT against Lmna	inactive: 0.949
GGCUCAGAAAGAAGAACUUTT against Pbxip1	inactive: 0.273
GGUAGCAGUUGCUUUAAUATT against Siah2	active: 2.65
GGGUUAUGACAAGAUGGCUTT against Olfr1440	inactive: -1.65
CUUUAUGGGUCGUGGAGGATT against Hnrnpa3	inactive: -1.12
CGCUGUUAUGGUUACCAUATT against Myoc	inactive: 0.785
GCUAUUGUUGUUGCAUCUGTT against Vmn1r58	inactive: -0.0251
GCCUAUAUCCAUGCACUGGTT against Frg1	inactive: -0.579
GGUCCUCCAGUUAAUGUCATT against Glra3	inactive: -0.916
CGAUGGCUUGGUUCCAUUUTT against Tcaf3	inactive: -0.0976
GUGCAUCAUGUCGGCUUUGTT against Tmem191c	inactive: 0.399
CCAUUAUGCGUCAAGGCCUTT against Olfr1231	inactive: -1.72
GCGUACGAGCGAAGGAUACTT against Cdc42bpb	inactive: -0.683
GCAGAUGCUCUCCUUAAAATT against Siglecg	inactive: 0.922
GGCGCAGAUGAAGAAUCCGTT against Stxbp1	inactive: 0.0265
GGUGGACCAAAAAGAACUUTT against 4933417A18Rik	inactive: 1.37
GUGAGUUCUAGAACAGCUATT against BC043934	inactive: 1.37

Random excerpt: 2 entries already listed, in no set order.
Sequence	z-score
CGAUGGCUUGGUUCCAUUUTT against Tcaf3	inactive: -0.0976
GCUAUUGUUGUUGCAUCUGTT against Vmn1r58	inactive: -0.0251
